# According to paper doi:10.1101/636324:
# These are yes or no findings as the source states them, for the method shown. In cells and extracts the contact can be indirect. A yes stands for co-enrichment or nearness to the bait. Other partners may have been found. Tags and fused reporters may be left off the sequences shown.
# T1: BIN2-YFP-TbID (Arabidopsis) (UniProt Q39011)
# T1 sequence: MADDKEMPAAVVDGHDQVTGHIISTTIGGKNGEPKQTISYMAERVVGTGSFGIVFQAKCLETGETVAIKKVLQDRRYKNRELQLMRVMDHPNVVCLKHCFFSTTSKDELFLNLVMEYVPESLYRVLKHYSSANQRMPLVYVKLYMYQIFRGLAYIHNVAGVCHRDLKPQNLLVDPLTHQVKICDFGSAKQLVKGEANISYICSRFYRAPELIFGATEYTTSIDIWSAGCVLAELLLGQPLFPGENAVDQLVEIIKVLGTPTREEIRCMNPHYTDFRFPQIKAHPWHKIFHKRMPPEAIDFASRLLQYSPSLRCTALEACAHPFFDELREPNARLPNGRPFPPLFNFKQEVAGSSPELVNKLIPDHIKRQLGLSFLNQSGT
# Target: T1, BIN2-YFP-TbID (Arabidopsis)
# Test: proximity labelling
row,Binder,binding
1,"OCTOPUS (protein, UniProt Q9SS80 1-685) MNPATDPVSAAAAALAPPPQPPQPHRLSTSCNRHPEERFTGFCPSCLCERLSVLDQTNNGGSSSSSKKPPTISAAALKALFKPSGNNGVGGVNTNGNGRVKPGFFPELRRTKSFSASKNNEGFSGVFEPQRRSCDVRLRSSLWNLFSQDEQRNLPSNVTGGEIDVEPRKSSVAEPVLEVNDEGEAESDDEELEEEEEEDYVEAGDFEILNDSGELMREKSDEIVEVREEIEEAVKPTKGLSEEELKPIKDYIDLDSQTKKPSVRRSFWSAASVFSKKLQKWRQNQKMKKRRNGGDHRPGSARLPVEKPIGRQLRDTQSEIADYGYGRRSCDTDPRFSLDAGRFSLDAGRFSVDIGRISLDDPRYSFDEPRASWDGSLIGRTMFPPAARAPPPPSMLSVVEDAPPPVHRHVTRADMQFPVEEPAPPPPVVNQTNGVSDPVIIPGGSIQTRDYYTDSSSRRRKSLDRSSSSMRKTAAAVVADMDEPKLSVSSAISIDAYSGSLRDNNNYAVETADNGSFREPAMMIGDRKVNSNDNNKKSRRWGKWSILGLIYRKSVNKYEEEEEEEEDRYRRLNGGMVERSLSESWPELRNGGGGGGGPRMVRSNSNVSWRSSGGGSARKVNGLDRRNKSSRYSPKNGENGMLKFYLPHMKASRRMSGTGGAGGGGGGGWANSHGHSIARSVMRLY",binds
2,"YDA (enzyme, UniProt Q9CAD5 1-883) MPWWSKSKDEKKKTNKESIIDAFNRKLGFASEDRSSGRSRKSRRRRDEIVSERGAISRLPSRSPSPSTRVSRCQSFAERSPAVPLPRPIVRPHVTSTDSGMNGSQRPGLDANLKPSWLPLPKPHGATSIPDNTGAEPDFATASVSSGSSVGDIPSDSLLSPLASDCENGNRTPVNISSRDQSMHSNKNSAEMFKPVPNKNRILSASPRRRPLGTHVKNLQIPQRDLVLCSAPDSLLSSPSRSPMRSFIPDQVSNHGLLISKPYSDVSLLGSGQCSSPGSGYNSGNNSIGGDMATQLFWPQSRCSPECSPVPSPRMTSPGPSSRIQSGAVTPLHPRAGGSTTGSPTRRLDDNRQQSHRLPLPPLLISNTCPFSPTYSAATSPSVPRSPARAEATVSPGSRWKKGRLLGMGSFGHVYLGFNSESGEMCAMKEVTLCSDDPKSRESAQQLGQEISVLSRLRHQNIVQYYGSETVDDKLYIYLEYVSGGSIYKLLQEYGQFGENAIRNYTQQILSGLAYLHAKNTVHRDIKGANILVDPHGRVKVADFGMAKHITAQSGPLSFKGSPYWMAPEVIKNSNGSNLAVDIWSLGCTVLEMATTKPPWSQYEGVPAMFKIGNSKELPDIPDHLSEEGKDFVRKCLQRNPANRPTAAQLLDHAFVRNVMPMERPIVSGEPAEAMNVASSTMRSLDIGHARSLPCLDSEDATNYQQKGLKHGSGFSISQSPRNMSCPISPVGSPIFHSHSPHISGRRSPSPISSPHALSGSSTPLTGCGGAIPFHHQRQTTVNFLHEGIGSSRSPGSGGNFYTNSFFQEPSRQQDRSRSSPRTPPHVFWDNNGSIQPGYNWNKDNQPVLSDHVSQQLLSEHLKLKSLDLRPGFSTPGSTNRGP",binds
3,"ARF2 (protein, UniProt Q94JM3 1-859) MASSEVSMKGNRGGDNFSSSGFSDPKETRNVSVAGEGQKSNSTRSAAAERALDPEAALYRELWHACAGPLVTVPRQDDRVFYFPQGHIEQVEASTNQAAEQQMPLYDLPSKLLCRVINVDLKAEADTDEVYAQITLLPEANQDENAIEKEAPLPPPPRFQVHSFCKTLTASDTSTHGGFSVLRRHADECLPPLDMSRQPPTQELVAKDLHANEWRFRHIFRGQPRRHLLQSGWSVFVSSKRLVAGDAFIFLRGENGELRVGVRRAMRQQGNVPSSVISSHSMHLGVLATAWHAISTGTMFTVYYKPRTSPSEFIVPFDQYMESVKNNYSIGMRFKMRFEGEEAPEQRFTGTIVGIEESDPTRWPKSKWRSLKVRWDETSSIPRPDRVSPWKVEPALAPPALSPVPMPRPKRPRSNIAPSSPDSSMLTREGTTKANMDPLPASGLSRVLQGQEYSTLRTKHTESVECDAPENSVVWQSSADDDKVDVVSGSRRYGSENWMSSARHEPTYTDLLSGFGTNIDPSHGQRIPFYDHSSSPSMPAKRILSDSEGKFDYLANQWQMIHSGLSLKLHESPKVPAATDASLQGRCNVKYSEYPVLNGLSTENAGGNWPIRPRALNYYEEVVNAQAQAQAREQVTKQPFTIQEETAKSREGNCRLFGIPLTNNMNGTDSTMSQRNNLNDAAGLTQIASPKVQDLSDQSKGSKSTNDHREQGRPFQTNNPHPKDAQTKTNSSRSCTKVHKQGIALGRSVDLSKFQNYEELVAELDRLFEFNGELMAPKKDWLIVYTDEENDMMLVGDDPWQEFCCMVRKIFIYTKEEVRKMNPGTLSCRSEEEAVVGEGSDAKDAKSASNPSLSSAGNS",binds
4,"BSL2 (protein, UniProt Q9SJF0 1-1018) MDEDSSMVADNDQDREFQSLDGGQSPSPMERETPQQMNDQSPPPEGGSVPTPPPSDPNPATSQQQAAAVVGQEQQPALVVGPRCAPTYSVVDAMMDKKEDGPGPRCGHTLTAVPAVGDEGTPGYIGPRLVLFGGATALEGNSGGTGTPTSAGSAGIRLAGATADVHCYDVLSNKWTRLTPFGEPPTPRAAHVATAVGTMVVIQGGIGPAGLSAEDLHVLDLTQQRPRWHRVVVQGPGPGPRYGHVMALVGQRYLMAIGGNDGKRPLADVWALDTAAKPYEWRKLEPEGEGPPPCMYATASARSDGLLLLCGGRDANSVPLASAYGLAKHRDGRWEWAIAPGVSPSSRYQHAAVFVNARLHVSGGALGGGRMVEDSSSVAVLDTAAGVWCDTKSVVTSPRTGRYSADAAGGDASVELTRRCRHAAAAVGDLIFIYGGLRGGVLLDDLLVAEDLAAAETTYAASHAAAAAATNSPPGRLPGRYGFSDERNRELSESAADGAVVLGSPVAPPVNGDMHTDISPENALLPGTRRTNKGVEYLVEASAAEAEAISATLAAAKARQVNGEVELPDRDCGAEATPSGKPTFSLIKPDSMGSMSVTPAGIRLHHRAVVVAAETGGALGGMVRQLSIDQFENEGRRVSYGTPESATAARKLLDRQMSINSVPKKVIAHLLKPRGWKPPVRRQFFLDCNEIADLCDSAERIFASEPTVLQLKAPIKIFGDLHGQFGDLMRLFDEYGSPSTAGDISYIDYLFLGDYVDRGQHSLETISLLLALKVEYQHNVHLIRGNHEAADINALFGFRIECIERMGERDGIWVWHRINRLFNWLPLAASIEKKIICMHGGIGRSINHVEQIENIQRPITMEAGSIVLMDLLWSDPTENDSVEGLRPNARGPGLVTFGPDRVMEFCNNNDLQLIVRAHECVMDGFERFAQGHLITLFSATNYCGTANNAGAILVLGRDLVVVPKLIHPLPPALSSPETSPERHIEDTWMQELNANRPATPTRGRPQNSNDRGGSLAWM",binds
5,"BSL3 (protein, UniProt Q9SHS7 1-1006) MDLDSSMVPENDQDPIATSENQSPMEEKEEASEQQTGSESESASLTPSLPPPSQQQQQQQQQPQVTAVVGPRCAPTYSVVNAIIEKKEDGPGPRCGHTLTAVPAVGEEGTSSYIGPRLILFGGATALEGNSGGTGTPTSAGSAGIRLAGATADVHCYDVLSNKWSRLTPYGEPPSPRAAHVATAVGTMVVIQGGIGPAGLSAEDLHVLDLTQQRPRWHRVVVQGPGPGPRYGHVMALVGQRYLMAIGGNDGKRPLADVWALDTAAKPYEWRKLEPEGEGPPPCMYATASARSDGLLLLCGGRDANSVPLASAYGLAKHRDGRWEWAIAPGVSPSARYQHAAVFVNARLHVSGGALGGGRMVEDSSSVAVLDTAAGVWCDTKSVVTSPRTGRYSADAAGGDASVELTRRCRHAAAAVGDLIFIYGGLRGGVLLDDLLVAEDLAAAETTSAASHAAAAAAATNTPPGRSPGRYGFSDERTGELPESAPDAVVLGSPVAPPVNGDMYTDISTENAMVPGIRRTSKGVEYLVEASAAEAEAISATLAAAKARQVNGEVELPDRDRGAEATPSGKPSLSLIKPDSAVPNSVIPAGVRLHHRAVVVAAETGGALGGMVRQLSIDQFENEGRRVSYGTPESATAARKLLDRQMSINSVPKKVVAHLLKPRGWKPPVRRQFFLDCNEIADLCDSAERIFSSEPTVLQLKAPIKIFGDLHGQFGDLMRLFDEYGSPSTAGDISYIDYLFLGDYVDRGQHSLETITLLLALKVEYQHNVHLIRGNHEAADINALFGFRIECIERMGERDGIWVWHRINRLFNWLPLAALIEKKIICMHGGIGRSINHVEQIENIQRPITMEAGSIVLMDLLWSDPTENDSVEGLRPNARGPGLVTFGPDRVMEFCNNNDLQLIVRAHECVMDGFERFAQGHLITLFSATNYCGTANNAGAILVLGRDLVVVPKLIHPLPPAITSPETSPERHIEDTWMQELNVNRPPTPTRGRPQNPNDRGSLAWI",binds
6,"auxin transporter PIN3 (protein, UniProt Q9S7Z8 1-640) MISWHDLYTVLTAVIPLYVAMILAYGSVRWWKIFSPDQCSGINRFVAIFAVPLLSFHFISTNNPYAMNLRFIAADTLQKIIMLSLLVLWANFTRSGSLEWSITIFSLSTLPNTLVMGIPLLIAMYGEYSGSLMVQIVVLQCIIWYTLLLFLFEFRGAKMLIMEQFPETAASIVSFKVESDVVSLDGHDFLETDAEIGDDGKLHVTVRKSNASRRSFCGPNMTPRPSNLTGAEIYSLSTTPRGSNFNHSDFYNMMGFPGGRLSNFGPADMYSVQSSRGPTPRPSNFEENCAMASSPRFGYYPGGGAGSYPAPNPEFSSTTTSTANKSVNKNPKDVNTNQQTTLPTGGKSNSHDAKELHMFVWSSNGSPVSDRAGLNVFGGAPDNDQGGRSDQGAKEIRMLVPDQSHNGETKAVAHPASGDFGGEQQFSFAGKEEEAERPKDAENGLNKLAPNSTAALQSKTGLGGAEASQRKNMPPASVMTRLILIMVWRKLIRNPNTYSSLIGLIWALVAFRWHVAMPKIIQQSISILSDAGLGMAMFSLGLFMALQPKLIACGNSVATFAMAVRFLTGPAVMAVAAIAIGLRGDLLRVAIVQAALPQGIVPFVFAKEYNVHPAILSTGVIFGMLIALPITLVYYILLGL",binds
